At least one compound was matched to its structure with a doubt left.
Tested on: isolated rat liver mitochondria
Test: MPT spectrophotometric assay (mitochondrial swelling)
Conditions: preincubation (500 μM bile acid or cyclosporine A) before DCA
Method: Isolation of mitochondria and MPT assays. Low calcium liver mitochondria were isolated from male 200-250 g Sprague-Dawley rats by density gradient centrifugation as previously published (Botla et al., J. Pharmacol. Exp. Ther., 272, 930-938 (1995); Walajtys-Rhode et al., J. Biol. Chem., 267, 370-379 (1992); and Sokol et al., Gastroenterology, 99, 1061-1071 (1990)). The mitochondrial fraction was resuspended in 30 ml of wash buffer containing 0.1 M KCl, 5 mM 3-(N-morpholino)-propane sulfonic acid (MOPS), and 1 mM EGTA, at pH 7.4 and centrifuged at 7,000×g for 10 min at 4° C. A final wash was carried out in chelex-100-treated buffer (Bio-Rad Laboratories, Hercules, Calif.) containing no EGTA. The resulting pellet was suspended in 4 ml of chelex--100-treated buffer containing 125 mM sucrose, 5 mM HEPES, 50 mM KCl and 2 mM KH2PO4. […] Protein concentrations were determined using the Bio-Rad protein assay kit as specified by the manufacturer.
MPT was measured spectrophotometrically as described previously (Botla et al., J. Pharmacol. Exp. Ther., 272, 930-938 (1995); Pastorino et al., J. Biol. Chem., 268, 13791-13798 (1993)), during 10 min incubations at 25° C. using mitochondria (1 mg of protein/ml) suspended in 3 ml of a chelex-100-treated buffer containing 0.1 M NaCl, 10 mM MOPS, pH 7.4. Swelling was monitored at 540 nm in a Beckman DU 64 spectrophotometer. […]

SMILES: C[C@H](CCC(=O)O)[C@H]1CC[C@H]2[C@@H]3[C@@H](O)C[C@@H]4C[C@H](O)CC[C@]4(C)[C@H]3CC[C@]12C [UDCA, ursodeoxycholic acid]
- effect on DCA-induced MPT / mitochondrial swelling: Significant inhibition

Reference: patent US20030044413A1, “Methods of limiting apoptosis of cells” (Regents of the University of Minnesota, priority 1998, published 2003)
